# From the supplement of paper PMC8728848
# The list shows a part of the results.
# B1: truncCC1G-10077 (Coprinopsis cinerea) (protein)
# chain: MHHHHHHHHPLPSPGPGWVLIQNGGTGKFLCSTPSGDIGTADGPETVYDYSVQWRFIQREYTGVYHVVNRATGAYLRQIGTSMPSIGLAEENDDELKDWWMLETYDNSEIGLASIISRWTGNVLDHYGGVSVQALDNNTENSYRSWAIIPARDWLTSFSLVNGQGGLCLAAQYAREETRLSTTANVNDFHAQWVFRKPSGSSGYTIQNKYNNHYVGGTSARWELVVCCNKYFGIRNTSTQKYLAIEDGQVTFQDQDMTDRKQCWELCSGRATDTSGNDYDLIYMDDDLLEVMIPWVGDKQGDLKHYIEKRATKKPPKDKGGWQLPAAGLIKKPKFNDIRQLLQELIEQWEWDVVNEEREQIQTLVSIDEAEARRLLGRRPHPDIVAAYQRSRSSTLFRIDRQGYFNIAGDRYVNIQGQYGDDSYFHIALPVGVRFGREQIRRFLRDSLDRSTSVTITPTTCKPPSGGPDYNRDPDSDGDNSWIKWTIAVVGTSAIKHSEL
# Legend:
# Experiment in all cases: glycan array binding signal (z-score within array); higher = stronger binding
# Details in all cases: glycan notation: IUPAC condensed, linker removed
# Neu5Ac(a2-8)Neu5Ac = molecular target: Neu5Ac(a2-8)Neu5Ac
# How it was run: (§1)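 The binding signal is a Z-score computed within each array. Data were drawn from 3228 arrays in the Consortium for Functional Glycomics database, restricted to those with a known protein sequence. Scores were averaged over arrays of the same protein sequence at different concentrations or buffers, and over linkers, and negative values can be taken as non-binding.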
# [1] = molecular target: Neu5Ac(a2-8)Neu5Ac(a2-3)Gal(b1-3)GalNAc(b1-4)[Neu5Ac(a2-3)]Gal(b1-4)Glc
# How it was run: as §1
# [2] = molecular target: Neu5Ac(a2-8)Neu5Ac(a2-3)Gal(b1-3)GalNAc(b1-4)[Neu5Ac(a2-8)Neu5Ac(a2-3)]Gal(b1-4)Glc
# How it was run: as §1
# [3] = molecular target: Neu5Ac(a2-8)Neu5Ac(a2-3)Gal(b1-4)Glc
# How it was run: as §1
# [4] = molecular target: Neu5Ac(a2-8)Neu5Ac(a2-3)Gal(b1-4)GlcNAc
# How it was run: as §1
# [5] = molecular target: Neu5Ac(a2-8)Neu5Ac(a2-3)[Gal(b1-3)GalNAc(b1-4)]Gal(b1-4)Glc
# How it was run: as §1
# [6] = molecular target: Neu5Ac(a2-8)Neu5Ac(a2-3)[GalNAc(b1-4)]Gal(b1-4)Glc
# How it was run: as §1
# [7] = molecular target: Neu5Ac(a2-8)Neu5Ac(a2-8)Neu5Ac
# How it was run: as §1
# [8] = molecular target: Neu5Ac(a2-8)Neu5Ac(a2-8)Neu5Ac(a2-3)Gal(b1-4)Glc
# How it was run: as §1
# [9] = molecular target: Neu5Ac(a2-8)Neu5Ac(a2-8)Neu5Ac(a2-3)[Gal(b1-3)GalNAc(b1-4)]Gal(b1-4)Glc
# How it was run: as §1
# [10] = molecular target: Neu5Ac(a2-8)Neu5Ac(a2-8)Neu5Ac(a2-3)[GalNAc(b1-4)]Gal(b1-4)Glc
# How it was run: as §1
# [11] = molecular target: Neu5Ac(a2-8)Neu5Ac(a2-8)Neu5Ac(a2-8)Neu5Ac(a2-3)[GalNAc(b1-4)]Gal(b1-4)Glc
# How it was run: as §1
# [12] = molecular target: Neu5Ac(a2-8)Neu5Gc(a2-3)Gal(b1-4)GlcNAc
# How it was run: as §1
# [13] = molecular target: Neu5Ac(b2-6)Gal(b1-4)GlcNAc
# How it was run: as §1
# Neu5Ac(b2-6)GalNAc = molecular target: Neu5Ac(b2-6)GalNAc
# How it was run: as §1
# [14] = molecular target: Neu5Ac9Ac(a2-3)Gal(b1-3)GlcNAc
# How it was run: as §1
# [15] = molecular target: Neu5Ac9Ac(a2-3)Gal(b1-4)GlcNAc
# How it was run: as §1
# [16] = molecular target: Neu5Ac9Ac(a2-6)Gal(b1-4)GlcNAc
# How it was run: as §1
# [17] = molecular target: Neu5Gc(a2-3)Gal(b1-3)GlcNAc
# How it was run: as §1
# [18] = molecular target: Neu5Gc(a2-3)Gal(b1-3)[Fuc(a1-4)]GlcNAc
# How it was run: as §1
# Neu5Gc(a2-3)Gal(b1-4)Glc = molecular target: Neu5Gc(a2-3)Gal(b1-4)Glc
# How it was run: as §1
# [19] = molecular target: Neu5Gc(a2-3)Gal(b1-4)GlcNAc
# How it was run: as §1
# [20] = molecular target: Neu5Gc(a2-3)Gal(b1-4)GlcNAc(b1-3)Gal(b1-4)GlcNAc(b1-2)Man(a1-3)[Neu5Gc(a2-3)Gal(b1-4)GlcNAc(b1-3)Gal(b1-4)GlcNAc(b1-2)Man(a1-6)]Man(b1-4)GlcNAc(b1-4)GlcNAc
# How it was run: as §1
# [21] = molecular target: Neu5Gc(a2-3)Gal(b1-4)[Fuc(a1-3)]GlcNAc
# How it was run: as §1
# [22] = molecular target: Neu5Gc(a2-6)Gal(b1-4)GlcNAc
# How it was run: as §1
# Neu5Gc(a2-6)GalNAc = molecular target: Neu5Gc(a2-6)GalNAc
# How it was run: as §1
# [23] = molecular target: Neu5Gc(a2-8)Neu5Ac(a2-3)Gal(b1-4)GlcNAc
# How it was run: as §1
# [24] = molecular target: Neu5Gc(a2-8)Neu5Gc(a2-3)Gal(b1-4)GlcNAc
# How it was run: as §1
# [25] = molecular target: Neu5Gc(a2-8)Neu5Gc(a2-3)Gal(b1-4)GlcNAc(b1-3)Gal(b1-4)GlcNAc
# How it was run: as §1
# [26] = molecular target: Neu5Gc(a2-8)Neu5Gc(a2-6)Gal(b1-4)GlcNAc
# How it was run: as §1
# [27] = molecular target: Neu5Gc(b2-6)Gal(b1-4)GlcNAc
# How it was run: as §1
binder,measurement,setting,value
B1,glycan array binding signal (z-score),Neu5Ac(a2-8)Neu5Ac,0.18
same,glycan array binding signal (z-score),[1],-0.511
same,glycan array binding signal (z-score),[2],-0.706
same,glycan array binding signal (z-score),[3],-1.11
same,glycan array binding signal (z-score),[4],-0.969
same,glycan array binding signal (z-score),[5],-0.04
same,glycan array binding signal (z-score),[6],-0.475
same,glycan array binding signal (z-score),[7],0.124
same,glycan array binding signal (z-score),[8],0.249
same,glycan array binding signal (z-score),[9],-0.92
same,glycan array binding signal (z-score),[10],-0.016
same,glycan array binding signal (z-score),[11],-0.02
same,glycan array binding signal (z-score),[12],-1.09
same,glycan array binding signal (z-score),[13],-1.25
same,glycan array binding signal (z-score),Neu5Ac(b2-6)GalNAc,-1
same,glycan array binding signal (z-score),[14],-1.02
same,glycan array binding signal (z-score),[15],-0.932
same,glycan array binding signal (z-score),[16],-0.867
same,glycan array binding signal (z-score),[17],-0.698
same,glycan array binding signal (z-score),[18],-0.171
same,glycan array binding signal (z-score),Neu5Gc(a2-3)Gal(b1-4)Glc,0.376
same,glycan array binding signal (z-score),[19],-0.789
same,glycan array binding signal (z-score),[20],1.32
same,glycan array binding signal (z-score),[21],3.02
same,glycan array binding signal (z-score),[22],-0.533
same,glycan array binding signal (z-score),Neu5Gc(a2-6)GalNAc,-0.873
same,glycan array binding signal (z-score),[23],-0.55
same,glycan array binding signal (z-score),[24],-0.276
same,glycan array binding signal (z-score),[25],-0.377
same,glycan array binding signal (z-score),[26],-0.247
same,glycan array binding signal (z-score),[27],1.45

# Some of the entries so far, as tab-separated lines:
binder	measurement	setting	value
B1	glycan array binding signal (z-score)	[17]	-0.698
same	glycan array binding signal (z-score)	[18]	-0.171
